Assay results: PubChem BioAssay AID445 (National Center for Advancing Translational Sciences (NCATS), 2006)
This is one part of the list. Shown are side measurements of this screen, not its main read-out; they come without a call. The list favours compounds with an active or inconclusive main result. Words in brackets tell the shape of the fitted curve; partial curves, single points and poor fits give uncertain potencies.

Experiment: IkB Signaling
Details: ABC-DLBCL IkBa-CBG/CBR dual luciferase ratio (green luciferase fused to IkBa over red control in OCI-Ly3 lymphoma cells), 4 h; measured here: control luc red channel unless noted
Procedure, shortened: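 Luminescence ratio of IκBα-fused green versus native red beetle luciferase in OCI-Ly3 cells, 4 h post-doxycycline with compound; red signal alone, scaled from basal (0%) to zero light (-100%), flagged nonspecific or cytotoxic effects.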

Compound | AC50
COc1ccc2c(c1)c(=O)c(C(=O)c1ccc(C)cc1)cn2Cc1ccccc1F | 39.8 µM [falling, single point]
COc1cccc(N2CC(NC(=O)C3CCCCC3)CC2=O)c1 (stereo not given) | 6.31 µM [rising, full curve]
CC(=O)c1c(C)oc2ccc(NS(=O)(=O)c3ccc(C(C)C)cc3)cc12 | 2.51 µM [falling, full curve]
Cc1ccccc1C(=O)Nc1cccc(-c2cn3cccnc3n2)c1 | 1.26 µM [rising, full curve, poor fit]
COc1cccc(-c2cc(C(=O)Nc3ccc4c(c3)OCO4)no2)c1 | 3.98 µM [falling, partial curve]
CC1CCc2nc(NC(=O)c3ccco3)sc2C1 (stereo not given) | 5.01 µM [falling, partial curve]
COc1ccc(-c2cc3nc(C)c(CCC(=O)Nc4ccc(F)cc4F)c(C)n3n2)c(OC)c1 | 0.501 µM [falling, full curve]
CCCNc1ccc(-c2nc(-c3ccco3)no2)cc1[N+](=O)[O-] | 3.98 µM [rising, partial curve]
CCOC(=O)c1[nH]c2ccccc2c1NC(=O)c1ccccc1OC | 25.1 µM [falling, partial curve]
Cc1ccc(Cl)cc1N1CCN(C(=O)c2cn(CC(C)C)c(=O)c3c2c2ccccc2n3C)CC1 | 15.8 µM [falling, partial curve]
CCc1ccc(N2C(=O)CS(=O)(=O)C23C(=O)N(Cc2ccccc2)c2ccccc23)cc1 (stereo not given) | 2.51 µM [falling, full curve]
CSc1nc2ccc(NS(=O)(=O)c3ccc4c(c3)OCCO4)cc2s1 | 31.6 µM [falling, single point]
Clc1c(CSc2nc3ccccc3o2)nc2ccccn12 | 25.1 µM [falling, single point]
O=C(Nc1ccccc1C(F)(F)F)c1noc2c1CCCCC2 | 0.2 µM [rising, full curve]
CC(=O)c1ccc(NC(=O)C2CCCN(S(=O)(=O)c3cn(C)cn3)C2)cc1 (stereo not given) | 0.0501 µM [falling, full curve]
CCc1cccc(C)c1Nc1c(-c2ccc(N3CCOCC3)cc2)nc2ncccn12 | 6.31 µM [falling, partial curve]
CCOC(=O)C1CCCN(C(=O)c2cc3c(=O)n(C)c4ccccc4c3s2)C1 (stereo not given) | 12.6 µM [falling, partial curve]
CCCCOC(=O)c1cc2c(cn1)[nH]c1ccccc12 | 12.6 µM [falling, partial curve]
CCOc1ccc(-c2c(C)nn3c(C)c(C(=O)NCC(C)c4ccccc4)cnc23)cc1OCC (stereo not given) | 25.1 µM [falling, single point]
Cc1ccc(CNC(=O)c2ccc3c(c2)N(Cc2cccc(Cl)c2)C(=O)CS3)cc1 | 6.31 µM [falling, full curve]

Compound | AC50
Cc1ccc(Cl)cc1NC(=O)Cn1c(=O)n(CCC(=O)N2CCc3ccccc3C2)c(=O)c2ccccc21 | 5.01 µM [falling, full curve, poor fit]
CCOc1ccc(NC(=O)Cn2cc(C(=O)c3ccc(C)c(C)c3)c(=O)c3cc(F)ccc32)cc1 | 20 µM [falling, single point]
COc1cc(NC(=O)CSc2nc3nc(C)c(Cc4ccccc4)c(C)n3n2)cc(OC)c1 | 15.8 µM [falling, partial curve]
O=C(O)CCC(=O)NCc1ccc2[nH]c3c(c2c1)CCCC3 | 3.98 µM [falling, partial curve]
CCN(c1ccc(C)cc1C)S(=O)(=O)c1nnc(NC(=O)CC(C)C)s1 | 0.501 µM [falling, full curve]
CCOC(=O)c1cc2c(=O)n3ccccc3nc2n(Cc2ccco2)c1=NC(=O)c1ccccc1OC | 10 µM [falling, partial curve]
O=C(Cn1c(=O)n(-c2ccc(F)cc2)c(=O)c2sccc21)Nc1cccc(C(F)(F)F)c1 | 31.6 µM [falling, single point]
Cc1cc(C)cc(OCC(=O)Nc2cccc(-c3nc4ccccc4[nH]3)c2)c1 | 7.94 µM [falling, partial curve]
COc1cccc(CNC(=O)Cn2c(=O)oc3cc(S(=O)(=O)N4CCC(C)CC4)ccc32)c1 | 10 µM [falling, partial curve]
COc1ccc(Cn2c(C(=O)O)c(CNCCc3ccccc3Cl)c3ccc(C)cc32)cc1 | 12.6 µM [falling, partial curve]
CCC(=O)N1CCc2cc(S(=O)(=O)CCC(=O)NCc3ccc(F)cc3)ccc21 | 10 µM [rising, partial curve]
Cc1ccccc1NC(=O)CSc1nnc(-c2ccoc2C)n1CCc1ccccc1 | 31.6 µM [falling, partial curve]
Cc1ccc(C(=O)N2CCN(c3ccccc3F)CC2)cc1NC(=O)c1nsc2ccccc12 | 3.16 µM [falling, full curve]
COc1cccc(CNc2nc3nc(C)c(Cl)c(C)n3n2)c1 | 6.31 µM [falling, partial curve]
COCCNC(=O)C(=O)Nc1c2c(nn1-c1ccccc1)CS(=O)(=O)C2 | 5.01 µM [rising, full curve]
CCn1cnc2c1c(=O)n(Cc1csc(-c3ccccc3)n1)c(=O)n2Cc1ccccc1 | 20 µM [falling, partial curve]
CCOc1ccc(CCNC(=O)Cn2nc(C)c3c(C)n(-c4ccccc4)nc3c2=O)cc1OCC | 39.8 µM [falling, single point]
CCOC(=O)c1c(C)sc(-c2c(-c3cc(C)ccc3C)[nH]c3c2c(=O)[nH]c(=O)n3C)c1O | 20 µM [falling, single point]
Cc1cc(C)nc(SCC(=O)Nc2ccc(N3CCOCC3)c(Cl)c2)n1 | 10 µM [falling, partial curve]
CC(C)c1ccc(S(=O)(=O)N2CCN(CCC(=O)Nc3ccc(N(C)C)cc3)CC2)cc1 | 20 µM [falling, partial curve]

2 entries from above, with each value named.
CCOc1ccc(NC(=O)Cn2cc(C(=O)c3ccc(C)c(C)c3)c(=O)c3cc(F)ccc32)cc1
  AC50: 20 µM [falling, single point]
COc1cc(NC(=O)CSc2nc3nc(C)c(Cc4ccccc4)c(C)n3n2)cc(OC)c1
  AC50: 15.8 µM [falling, partial curve]
